Measurements from patent US7893092B2, “Anthranilamide derivatives as insecticides” (Syngenta Crop Protection, Inc., priority 2004, dated 2011).
Some entries share one result that the patent states for a list of compounds.

These compounds were tested on Heliothis virescens eggs (assay: Activity against Heliothis virescens, application to eggs (Example B4)). Conditions: eggs on cotton sprayed, 400 ppm active ingredient, 8 days.
Type: in vivo

Structure (SMILES)	percentage hatching rate of the eggs and survival rate of the caterpillars (% activity)
Cc1cc(Cl)cc(C(=O)NC(C)(C)CS(C)(=N)=O)c1NC(=O)c1cc(C(F)(F)F)nn1-c1ncccc1Cl (stereo not drawn) [T1.1.1]	over 80%
Cc1cc(Cl)cc(C(=O)NC(C)(C)CS(C)(=N)=O)c1NC(=O)c1cc(OCC(F)(F)F)nn1-c1ncccc1Cl (stereo not drawn) [T1.1.17]	over 80%
Cc1cc(C#N)cc(C(=O)NC(C)(C)CS(C)(=N)=O)c1NC(=O)c1cc(OCC(F)(F)F)nn1-c1ncccc1Cl (stereo not drawn) [T1.1.89]	over 80%
Cc1cc(Cl)cc(C(=O)NC(C)(C)CS(C)(=O)=NC(=O)C(F)(F)F)c1NC(=O)c1cc(C(F)(F)F)nn1-c1ncccc1Cl (stereo not drawn) [T3.1.1]	over 80%
CCS(=N)(=O)CCNC(=O)c1cc(Cl)cc(C)c1NC(=O)c1cc(C(F)(F)F)nn1-c1ncccc1Cl (stereo not drawn) [T30.1.2]	over 80%
Cc1cc(Cl)cc(C(=O)NCC(C)(C)CS(C)(=O)=NC(=O)C(F)(F)F)c1NC(=O)c1cc(C(F)(F)F)nn1-c1ncccc1Cl (stereo not drawn) [T43.1.1]	over 80%
